Laboratory results from article PMC6261646.
No constants are given. Whether binding was seen depends on the method and setting.

Chains of the proteins cited; added tags and fusions are not shown. Lines headed by an entry give the natural chain unless they say otherwise; changes in a name come on top. A line that says so, or that is headed by a name, gives the form on record, which may keep a tag or linker.
human integrin β2 TMD construct (V667 to Y713), C673S (P05107, form named): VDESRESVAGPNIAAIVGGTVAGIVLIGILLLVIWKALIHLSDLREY

Target: human integrin β2 TMD construct (V667 to Y713), C673S (human) (UniProt P05107)
Experiment: NMR titration; different concentrations of unlabeled β2 peptide titrated into 0.6 mM 15N-labeled β2 TMD peptide in mixture lipid bicelles (24 mM POPG, 48 mM POPC), 240 mM DHPC, 20 mM Bis-Tris pH 6.7; both purified

“human integrin β2 TMD construct (V667 to Y713), C673S (from UniProt P05107 689-735) (domain or fragment)” was tested, and the binding was “no binding”.
